# Laboratory results taken from PubChem BioAssay AID720504 (National Center for Advancing Translational Sciences (NCATS), 2013).
# Sequences of proteins named here, by UniProt entry; tags and fusion partners are left off.
# UniProt P53350, whole entry, looked up: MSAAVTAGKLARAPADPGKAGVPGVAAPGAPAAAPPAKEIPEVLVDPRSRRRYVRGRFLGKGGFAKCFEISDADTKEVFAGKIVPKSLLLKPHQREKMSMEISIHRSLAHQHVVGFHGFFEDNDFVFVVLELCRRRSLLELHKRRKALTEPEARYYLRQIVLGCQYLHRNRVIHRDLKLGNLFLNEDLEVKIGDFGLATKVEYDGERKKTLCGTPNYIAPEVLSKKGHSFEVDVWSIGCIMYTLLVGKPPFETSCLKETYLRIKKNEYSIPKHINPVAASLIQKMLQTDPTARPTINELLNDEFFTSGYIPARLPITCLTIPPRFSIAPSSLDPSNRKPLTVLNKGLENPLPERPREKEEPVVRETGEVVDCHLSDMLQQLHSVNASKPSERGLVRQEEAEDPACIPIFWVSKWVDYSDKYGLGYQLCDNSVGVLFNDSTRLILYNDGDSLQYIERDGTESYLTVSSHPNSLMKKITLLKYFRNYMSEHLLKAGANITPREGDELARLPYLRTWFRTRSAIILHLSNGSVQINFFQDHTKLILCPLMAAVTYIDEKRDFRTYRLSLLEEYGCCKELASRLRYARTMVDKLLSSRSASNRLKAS
# The campaign covered roughly 360,000 compounds. About 10,000 (2.8%) were called active. This list was built around the results that the source calls inconclusive (neither active nor inactive); the mix of calls is not that of the screen. Calls follow the shape of the dose curve; as a rule, active = well fitted inhibition curve with a large enough effect; inconclusive = small, poorly fitted or top-dose-only effect; inactive = flat fitted curve, though single readings scatter. Where the call is inconclusive, the potency comes from a doubtful curve fit.
# Target: Serine/threonine-protein kinase PLK1 (Homo sapiens) (UniProt P53350)
# Test: qHTS for Inhibitors of PLK1-PDB (polo-like kinase 1 - polo-box domain): Primary Screen; also: nearly all actives have a fitted effect of over 65% in size; as to max response, negative = inhibition: series mostly up to about 57 µM
# Settings: Plk1 PBD binding of FITC phosphopeptide, fluorescence polarization
# % is scaled to controls: 0 for no effect and ±100 for the full control effect; potency is read from the fitted curve at half-maximal effect.
Compound,"max response, negative = inhibition",Potency
O=C(Nc1cccc(C(=O)O)c1)/C(=C\c1ccco1)NC(=O)c1ccccc1,inactive: -22.6%,
O=C(NC(NC(=S)Nc1c(Cl)cccc1Cl)C(Cl)(Cl)Cl)c1cccc([N+](=O)[O-])c1 (configuration not stated),,"inconclusive: 29.9 µM [inhibitor, partial curve]"
O=C(CSc1cn[nH]n1)Nc1ccccc1C(=O)O,,"inconclusive: 26.7 µM [inhibitor, partial curve]"
Cc1ccccc1S(=O)(=O)Cc1ccc(C(=O)NC2CCCCC2)o1,,active: 21.2 µM
Cc1c(O)ccc2c3c(c(=O)oc12)CCC(C)C3 (configuration not stated),inactive: -9.06%,
CC1CC(C)CN(C(=O)Cn2c(SCC(=O)N3CCc4ccccc4C3)nc3ccccc32)C1 (configuration not stated),,"inconclusive: 26.7 µM [inhibitor, single point]"
O=C(O)c1ccccc1NS(=O)(=O)c1ccc(N/N=C/c2ccc(O)c(O)c2)c([N+](=O)[O-])c1,,"inconclusive: 29.9 µM [inhibitor, single point]"
O=C(O)CNC(=O)c1ccccc1Br,,"inconclusive: 29.9 µM [inhibitor, single point]"
CC(C)c1ccc(-c2nc3c([nH]2)c(=O)n(C)c(=O)n3C)cc1,inactive: -3.66%,
CCCCN1C(=N)N([C@@H](C)CN2CCC[C@H]2CN2C(N)=NC[C@@H]2Cc2ccccc2)C[C@H]1Cc1ccccc1,inactive: -2.88%,
O=C(Nc1cnn(Cc2ccc(Cl)cc2)c1)c1cccs1,,active: 6.7 µM
CSc1ccc(NC(=O)NCCCN2CCN(c3ccccc3F)CC2)cc1,inactive: -11.3%,
COC(=O)COc1cccc(/C=N/NC(=O)CCSc2ccccc2)c1,,"inconclusive: 33.6 µM [inhibitor, partial curve]"
CC(C)OC(=O)c1c(NS(=O)(=O)c2ccccc2)sc2c1CCCC2,,active: 2.67 µM
Cc1cc(C)c(S(=O)(=O)/N=C2\C=C(Nc3ccc(C(=O)O)cc3)C(=O)c3ccccc32)c(C)c1,,"inconclusive: 15 µM [inhibitor, single point]"
Cn1c(NCCN(CCO)CCCc2ccc([N+](=O)[O-])cc2)cc(=O)n(C)c1=O,inactive: -4.02%,
CCOc1ccc(NC(=O)Nc2ccc3nsnc3c2)cc1,,"inconclusive: 13.4 µM [inhibitor, partial curve]"
c1ccc(OCCn2c(-c3ccco3)nc3ccccc32)cc1,,"inconclusive: 21.2 µM [inhibitor, single point]"
Cc1ccc(C(=O)N/C(=C/c2cn(-c3ccccc3)nc2-c2ccccc2)C(=O)O)cc1,,"inconclusive: 75.2 µM [inhibitor, partial curve]"
Oc1ccc(N=C/C=C/c2cccc(Br)c2)cc1-c1nc2ccccc2s1,,"inconclusive: 15 µM [inhibitor, partial curve]"
O=C(OCC(=O)N(C1CCCCC1)C1CCCCC1)c1ccncc1,,active: 21.2 µM
CCn1cc(C(=O)NCCc2ccc(Cl)cc2)c(=O)c2ccc(C)nc21,inactive: -3.95%,
Cc1c(NC(=O)C(C)SC(=S)N2CCCC2)c(=O)n(-c2ccccc2)n1C (configuration not stated),inactive: 0.653%,
CC(Nc1nc(-c2ccc(F)cc2)cs1)c1nc2cc(Cl)c(Cl)cc2n1CCCO (configuration not stated),,"inconclusive: 26.7 µM [inhibitor, single point]"

Compound,"max response, negative = inhibition",Potency
CCS(=O)(=O)C1=NN2C(=N)/C(=C\c3ccc(SCc4ccco4)o3)C(=O)N=C2S1,,"inconclusive: 2.99 µM [inhibitor, full curve]"
c1ccc(Cc2nn3c(Cn4nnc5ccccc54)nnc3s2)cc1,,active: 8.44 µM
Cc1cc(C)nc(Sc2ccc(C=O)cc2[N+](=O)[O-])n1,inactive: -7.42%,
CCOC(=O)CSc1cc(CSc2ccccc2)nc(-c2ccccc2)n1,,"inconclusive: 18.9 µM [inhibitor, partial curve, poor fit]"
O=C(CSc1nncc2ccccc12)Nc1cccc(C(=O)O)c1,,active: 18.9 µM
O=C1CSC(=S)N1/N=C/c1ccc(O)c(O)c1O,,active: 0.947 µM
Cc1cc(Nc2ccccc2C(=O)O)n(-c2ccc([N+](=O)[O-])cc2)n1,inactive: 1.4%,
COCCCNC(=O)c1cc(Cc2ccccc2)sc1N,,"inconclusive: 29.9 µM [inhibitor, single point]"
O=C([C@@H]1CCCN1C(=O)c1cccs1)N1CCN(S(=O)(=O)c2cccc(F)c2)CC1,inactive: 0.212%,
CCc1nnc(NCC(=O)N2CCc3ccccc32)s1,,active: 23.8 µM
COc1ccc(CNC(=O)CCCC2=NS(=O)(=O)c3ccccc3N2)cc1,inconclusive: -33.6% [inhibitor],
CCOC(=O)c1c(-c2ccccc2)oc2ccc(OCC(=O)NNC(=O)CCC(=O)O)cc12,inactive: -6.4%,
Oc1nc(-c2ccc(Cl)cc2)n2ccncc12,inactive: -15.1%,
C[C@@H](C(=O)Nc1ccc(SC(F)F)cc1)N1C(=O)C2CCCCC2C1=O (some centres not stated),,"inconclusive: 29.9 µM [inhibitor, partial curve, poor fit]"
COc1ccc([N+](=O)[O-])cc1NC(=O)CCN1CCN(C)CC1,inactive: -2.35%,
O=C(c1cc(-c2ccco2)nc2ccccc12)N1CCCC(C(F)(F)F)C1 (configuration not stated),,"inconclusive: 23.8 µM [inhibitor, single point]"
O=C1NN(c2ccccc2)C(=O)C1=Cc1ccccc1O,,active: 26.7 µM
CCOC(=O)C1=C(C)NC(SC)=NC1c1ccccc1 (configuration not stated),,"inconclusive: 23.8 µM [inhibitor, single point]"
O=C(O)c1ccccc1C(=O)O,inactive: -3.53%,
COC(=O)c1ccccc1N=NNc1ccc([N+](=O)[O-])cc1,inactive: 0.193%,
CCOC(=O)COc1ccc(/C=C/[N+](=O)[O-])c(OCC(=O)OCC)c1,,"inconclusive: 5.32 µM [inhibitor, full curve]"
COCCn1c(SCc2cccc(F)c2)nc2cc(C(=O)OC)ccc2c1=O,inactive: -10.6%,
CCCCOC(=O)c1ccc(NC(=S)N2CCN(c3ncc4c(=O)c(C(=O)O)cn(CC)c4n3)CC2)cc1,inconclusive: -34.1% [inhibitor],

# Shown bar-delimited: part of the list above.
Compound | max response, negative = inhibition | Potency
COc1ccc([N+](=O)[O-])cc1NC(=O)CCN1CCN(C)CC1 | inactive: -2.35% | 
O=C(O)c1ccccc1C(=O)O | inactive: -3.53% | 
